Results taken from paper PMC6619347.
These are yes or no findings as the source states them, for the method shown. In cells and extracts the contact can be indirect. Some results given as binding are weak or reduced against the parent protein; the word gives no strength.

Amino acid sequences for entries named in this document (tags omitted).
UniProt P35222: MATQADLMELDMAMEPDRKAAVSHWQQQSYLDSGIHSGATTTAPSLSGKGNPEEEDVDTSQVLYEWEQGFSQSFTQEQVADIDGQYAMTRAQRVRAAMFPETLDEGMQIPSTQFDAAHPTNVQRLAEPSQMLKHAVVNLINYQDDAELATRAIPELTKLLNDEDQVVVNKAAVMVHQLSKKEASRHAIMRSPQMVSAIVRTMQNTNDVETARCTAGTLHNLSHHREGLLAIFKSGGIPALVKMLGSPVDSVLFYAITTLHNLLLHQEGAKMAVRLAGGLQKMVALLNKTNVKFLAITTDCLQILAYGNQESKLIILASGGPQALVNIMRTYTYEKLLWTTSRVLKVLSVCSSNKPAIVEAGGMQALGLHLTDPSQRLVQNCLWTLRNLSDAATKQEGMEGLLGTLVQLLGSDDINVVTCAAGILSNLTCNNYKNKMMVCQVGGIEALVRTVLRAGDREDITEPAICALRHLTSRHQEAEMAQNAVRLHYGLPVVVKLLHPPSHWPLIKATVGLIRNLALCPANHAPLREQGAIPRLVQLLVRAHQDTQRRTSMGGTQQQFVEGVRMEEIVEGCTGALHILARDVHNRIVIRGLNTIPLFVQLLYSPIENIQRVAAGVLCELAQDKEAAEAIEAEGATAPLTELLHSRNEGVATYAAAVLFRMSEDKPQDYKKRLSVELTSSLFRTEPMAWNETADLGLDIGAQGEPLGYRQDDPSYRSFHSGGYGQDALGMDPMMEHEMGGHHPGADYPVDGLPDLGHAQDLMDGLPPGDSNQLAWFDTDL

How the values were obtained:
DDK‐FBXO16 (human) = biological target: T1, DDK‐FBXO16 (human) (UniProt Q8IX29); assay: co-IP; MCF7 cells coexpressing DDK‐FBXO16 and GFP‐β‐catenin for 40 h, then 5 μM MG132 for 6 h; whole‐cell lysates immunoprecipitated with the indicated antibodies, immunoblot
T1 sequence: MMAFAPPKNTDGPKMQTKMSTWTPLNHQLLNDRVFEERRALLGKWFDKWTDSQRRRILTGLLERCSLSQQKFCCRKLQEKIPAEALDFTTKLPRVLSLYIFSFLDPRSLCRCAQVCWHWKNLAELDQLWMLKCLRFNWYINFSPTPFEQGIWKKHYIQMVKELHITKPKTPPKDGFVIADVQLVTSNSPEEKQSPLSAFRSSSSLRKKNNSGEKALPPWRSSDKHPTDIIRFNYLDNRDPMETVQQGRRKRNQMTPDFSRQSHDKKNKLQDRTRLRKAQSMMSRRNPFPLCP

[1] = biological target: T2, FBXO16 (in HEK‐293 cells) (human) (UniProt Q8IX29); assay: co-IP; HEK‐293 cells, without and with the proteasome inhibitor MG132 (Figure S1B)
T2 sequence: T1 sequence

[2] = biological target: T3, FBXO16 (endogenous) (human (endogenous in MCF7)) (UniProt Q8IX29); assay: co-IP; endogenous proteins; whole‐cell lysates of MCF7 cells pretreated with 5 μM MG132 for 6 h; IgG immunoprecipitates as control; immunoblot
T3 sequence: T1 sequence

GFP‐WT‐β‐catenin = GFP‐WT‐β‐catenin (UniProt P35222); assay: co-IP; MCF7 cells coexpressing DDK‐FBXO16 and GFP‐β‐catenin for 40 h, then 5 μM MG132 for 6 h; whole‐cell lysates immunoprecipitated with the indicated antibodies, immunoblot
[3] = biological target: β‐catenin (endogenous) (human (endogenous in MCF7)) (UniProt P35222); assay: co-IP; endogenous proteins; whole‐cell lysates of MCF7 cells pretreated with 5 μM MG132 for 6 h; IgG immunoprecipitates as control; immunoblot
[4] = biological target: β‐catenin (endogenous) (human (endogenous in MCF7)) (UniProt P35222); assay: co-IP; nuclear and cytoplasmic fractions immunoprecipitated with anti‐β‐catenin antibody or IgG; cells grown with 5 μM MG132 for 6 h; immunoblot

With “GFP‐WT‐β‐catenin (from UniProt P35222 1-781)” the binding (DDK‐FBXO16 (human)) was “binds”.

For “β‐catenin (in HEK‐293 cells) (from UniProt P35222 1-781)”, the binding [1] was “binds”.

“β‐catenin (endogenous) (from UniProt P35222 1-781)” was tested, and the binding [2] was “binds”.

B1: DDK‐FBXO16 (protein, UniProt Q8IX29 1-292)
chain: T1 sequence
For B1, the binding (GFP‐WT‐β‐catenin) was “binds”.

B2: FBXO16 (endogenous) (protein, UniProt Q8IX29 1-292)
chain: T1 sequence
In the case of B2, the binding [3] is reported as “binds” and the binding [4] is reported as “binds”.
